Measurements taken from article PMC5173322, “Neurodegenerative disease mutations in TREM2 reveal a functional surface and distinct loss-of-function mechanisms” (eLife, 2016).
No constants are given. Whether binding was seen depends on the method and setting. Blank lines part the entries; values can stand above or below the binder they belong to.

Assays:
[1] = target: human TREM2 ectodomain D87N (human) (UniProt Q9NZC2); assay: non-reducing SDS-PAGE; purified AD risk variant ectodomains prepared with and without beta-mercaptoethanol; both purified
[2] = target: human TREM2 ectodomain D87N (human) (UniProt Q9NZC2); assay: SEC; analytical gel filtration (Superdex 200 10/300 GL) of the purified ectodomain, monomer fraction concentrated and re-run; 20 mM Tris pH 8.5, 150 mM NaCl; both purified
[3] = target: human TREM2 ectodomain N68K (human) (UniProt Q9NZC2); assay: non-reducing SDS-PAGE; purified AD risk variant ectodomains prepared with and without beta-mercaptoethanol; both purified
[4] = target: human TREM2 ectodomain N68K (human) (UniProt Q9NZC2); assay: SEC; analytical gel filtration (Superdex 200 10/300 GL) of the purified ectodomain, monomer fraction concentrated and re-run; 20 mM Tris pH 8.5, 150 mM NaCl; both purified
[5] = target: human TREM2 ectodomain R62H (human) (UniProt Q9NZC2); assay: non-reducing SDS-PAGE; purified AD risk variant ectodomains prepared with and without beta-mercaptoethanol; both purified
[6] = target: human TREM2 ectodomain R62H (human) (UniProt Q9NZC2); assay: SEC; analytical gel filtration (Superdex 200 10/300 GL) of the purified ectodomain, monomer fraction concentrated and re-run; 20 mM Tris pH 8.5, 150 mM NaCl; both purified
[7] = target: human TREM2 ectodomain R47H (human) (UniProt Q9NZC2); assay: non-reducing SDS-PAGE; purified AD risk variant ectodomains prepared with and without beta-mercaptoethanol; both purified
[8] = target: human TREM2 ectodomain R47H (human) (UniProt Q9NZC2); assay: SEC; analytical gel filtration (Superdex 200 10/300 GL) of the purified ectodomain, monomer fraction concentrated and re-run; 20 mM Tris pH 8.5, 150 mM NaCl; both purified
[9] = target: human TREM2 ectodomain T96K (human) (UniProt Q9NZC2); assay: non-reducing SDS-PAGE; purified AD risk variant ectodomains prepared with and without beta-mercaptoethanol; both purified
[10] = target: human TREM2 ectodomain T96K (human) (UniProt Q9NZC2); assay: SEC; analytical gel filtration (Superdex 200 10/300 GL) of the purified ectodomain, monomer fraction concentrated and re-run; 20 mM Tris pH 8.5, 150 mM NaCl; both purified

B3: human TREM2 ectodomain R62H (domain or fragment, UniProt Q9NZC2 19-134)
chain: HNTTVFQGVAGQSLQVSCPYDSMKHWGRRKAWCRQLGEKGPCQHVVSTHNLWLLSFLRRWNGSTAITDDTLGGTLTITLRNLQPHDAGLYQCQSLHGSEADTLRKVLVEVLADPLD
- binding [5]: no binding
- binding [6]: no binding

B5: human TREM2 ectodomain T96K (domain or fragment, UniProt Q9NZC2 19-134)
chain: HNTTVFQGVAGQSLQVSCPYDSMKHWGRRKAWCRQLGEKGPCQRVVSTHNLWLLSFLRRWNGSTAITDDTLGGTLTIKLRNLQPHDAGLYQCQSLHGSEADTLRKVLVEVLADPLD
- binding [9]: no binding
- binding [10]: no binding

Now from value to binder:

- binding [1]: no binding
- binding [2]: no binding
B1: human TREM2 ectodomain D87N (domain or fragment, UniProt Q9NZC2 19-134)
chain: HNTTVFQGVAGQSLQVSCPYDSMKHWGRRKAWCRQLGEKGPCQRVVSTHNLWLLSFLRRWNGSTAITDNTLGGTLTITLRNLQPHDAGLYQCQSLHGSEADTLRKVLVEVLADPLD

- binding [3]: no binding
- binding [4]: no binding
B2: human TREM2 ectodomain N68K (domain or fragment, UniProt Q9NZC2 19-134)
chain: HNTTVFQGVAGQSLQVSCPYDSMKHWGRRKAWCRQLGEKGPCQRVVSTHKLWLLSFLRRWNGSTAITDDTLGGTLTITLRNLQPHDAGLYQCQSLHGSEADTLRKVLVEVLADPLD

- binding [7]: no binding
- binding [8]: no binding
B4: human TREM2 ectodomain R47H (domain or fragment, UniProt Q9NZC2 19-134)
chain: HNTTVFQGVAGQSLQVSCPYDSMKHWGRHKAWCRQLGEKGPCQRVVSTHNLWLLSFLRRWNGSTAITDDTLGGTLTITLRNLQPHDAGLYQCQSLHGSEADTLRKVLVEVLADPLD
